Measured values published in US20210347870A1.
Substitutions are numbered along the chain they refer to. No constants are given. Whether binding was seen depends on the method and setting. Some binding calls cover weakened binding; strength is not graded here. Values belong to the binder of their own block, whether it stands above or below them.

Protein sequences, listed by entry. Tags and fused reporters are not part of them. Lines headed by an entry give the natural chain unless they say otherwise; changes in a name come on top. Chains listed by the source or under a name are the forms on record and can include a tag or linker.
recombinant human mesothelin protein (Q13421, form named): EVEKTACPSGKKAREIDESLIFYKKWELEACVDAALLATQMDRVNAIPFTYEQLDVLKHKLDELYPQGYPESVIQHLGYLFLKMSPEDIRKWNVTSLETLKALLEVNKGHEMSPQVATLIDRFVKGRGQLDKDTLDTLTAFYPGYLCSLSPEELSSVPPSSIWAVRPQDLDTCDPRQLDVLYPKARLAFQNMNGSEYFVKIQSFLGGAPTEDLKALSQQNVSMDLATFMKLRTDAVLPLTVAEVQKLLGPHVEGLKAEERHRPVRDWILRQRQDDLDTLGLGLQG

Biological target: recombinant human mesothelin protein (human) (UniProt Q13421)
Experiment: ELISA: scFv coated at 200 ng/ml, 100 ng/ml recombinant human mesothelin, detection antibody and streptavidin-HRP, absorbance at 450 nm

- binding: binds
B1: C2G4 scFv protein (scFv)
scFv: EVQLLESGGGLVQPGGSLRLSCAASGFTFSNYAMSWVRQAPGKGLEWVSGIPPDSGSKYYADSVRGRFTVSRDNSKNTLYLQMNSLRAEDTAVYYCAKNMLSFDYWGQGTLVTVSSGGGGSGGGGSGGGGSQSVLTQPPSASGTPGQRVTISCTGSSSNIGSNAVSWYQQLPGTAPKLLIYYNSKRPSGVPDRFSGSKSGTSASLAISGLRSEDEADYYCGSWDPSLNGYVFGGGTKVTVLG

- binding: binds
B2: MS501 scFv protein (scFv)
scFv: EVQLLESGGGLVQPGGSLRLSCAASGFTFSNYAMSWVRQAPGKGLEWVSGIYPDSGSTYYADSVKGRFTISRDNSKNTLYLQMNSLRAEDTAVYYCARNIYTFDYWGQGTLVTVSSGGGGSGGGGSGGGGSQSVLTQPPSASGTPGQRVTISCSGSSSNIGSNAVSWYQQLPGTAPKLLIYYNNQRPSGVPDRFSGSKSGTSASLAISGLRSEDEADYYCGSWDSSLSGYVFGGGTKLTVLG

- binding: binds
B3: MS503 scFv protein (scFv)
scFv: B2 scFv with G50S, D54G, S55D, R98K, I100A, Y101F, N184S, Q185H, S222T
